This assay concerns the target BcTol1-GFP (B. cinerea (strain B05.10)). The assay can be described thus: affinity purification with mass spectrometry; coIP from mycelia of the BcTol1-GFP transformant with anti-GFP agarose, trypsin digest, LC-MS/MS.

Chains of the proteins cited; added tags and fusions are not shown.
UniProt A0A384J919: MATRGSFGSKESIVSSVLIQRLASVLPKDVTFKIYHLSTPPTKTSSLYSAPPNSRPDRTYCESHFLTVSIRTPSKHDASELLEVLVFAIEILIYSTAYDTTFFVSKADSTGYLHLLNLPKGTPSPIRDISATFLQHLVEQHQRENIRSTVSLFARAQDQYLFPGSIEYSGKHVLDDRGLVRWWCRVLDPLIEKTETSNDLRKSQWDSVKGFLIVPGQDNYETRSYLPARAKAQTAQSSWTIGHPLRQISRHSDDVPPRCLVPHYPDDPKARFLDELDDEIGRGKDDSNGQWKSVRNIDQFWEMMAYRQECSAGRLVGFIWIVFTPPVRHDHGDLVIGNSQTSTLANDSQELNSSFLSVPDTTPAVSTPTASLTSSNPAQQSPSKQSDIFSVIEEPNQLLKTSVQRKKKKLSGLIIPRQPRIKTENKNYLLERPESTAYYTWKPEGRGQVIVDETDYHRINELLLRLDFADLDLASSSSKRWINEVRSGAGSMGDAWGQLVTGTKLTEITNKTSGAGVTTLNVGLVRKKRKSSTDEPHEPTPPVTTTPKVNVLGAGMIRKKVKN

These are yes or no findings as the source states them, for the method shown. In cells and extracts the contact can be indirect. Here binding means that the protein was enriched with, or labelled near, the bait; the list need not be complete.

For “BcRtt109, endogenous (from UniProt A0A384J919 1-563) (enzyme)”, the binding result is given as “binds”.
